Counter-ions that a name gives are not always drawn. Some of the results follow. The data scatter; read single values as rough.

The subject of the assay is Peyronie's disease tunica albuginea primary fibroblasts. The experiment in a line: cell viability (DRAQ5 nuclear stain) relative to TGF-beta1-only control; higher = more viable cells. The note with it: 10 µM; TGF-beta1 10 ng/mL; 72 h.
Consider `O=C1c2cccc(O)c2C(=O)c2c(O)cccc21` [Danthron], for which the cell viability (commonly a read-out of living cells in per cent, often relative to untreated cells) was 86.2%.
`CCOC(N)=O` [Urethane]: the cell viability was found to be 84.6%.
In the case of `Cc1c(C(=O)Nc2ccc(N3C[C@@H](C)O[C@@H](C)C3)nc2)cccc1-c1ccc(OC(F)(F)F)cc1` [Sonidegib (Erismodegib, NVP-LDE225)] it was 88%; in that of `CCOC(CN1CCN(CC(C)C(=O)c2ccccc2)CC1)c1ccccc1` (stereo not given) [Eprazinone 2HCl], 94.9%.
In the case of `OCC(CO)N[C@H]1C[C@](O)(CO)[C@@H](O)[C@H](O)[C@H]1O` [Voglibose] it was 91.8%.
In the case of `Cc1ccc(Nc2nccc(N(C)c3ccc4c(C)n(C)nc4c3)n2)cc1S(N)(=O)=O` it was 81%.
As to `Cc1ccc(Nc2nccc(N(C)c3ccc4c(C)n(C)nc4c3)n2)cc1S(N)(=O)=O` [Pazopanib], the cell viability was 72.8%.
Turning to `COc1cc(Nc2ncc3c(n2)-c2ccc(Cl)cc2C(c2c(F)cccc2OC)=NC3)ccc1C(=O)O` [Alisertib (MLN8237)], the cell viability was determined as 72.1%.
In the case of `CCCCC(=O)N(Cc1ccc(-c2ccccc2-c2nnn[nH]2)cc1)[C@H](C(=O)O)C(C)C` [Valsartan] it was 87.8%.
With `C[C@H](CCC(=O)O)[C@H]1CC[C@H]2[C@@H]3C(=O)C[C@@H]4CC(=O)CC[C@]4(C)[C@H]3CC(=O)[C@]12C` [Dehydrocholic acid] the figure was 92.8%; with `CO[C@H]1C[C@H](O[C@@H]2/C(C)=C/C[C@@H]3C[C@@H](C[C@]4(CC[C@H](C)[C@@H](C5CCCCC5)O4)O3)OC(=O)[C@@H]3C=C(C)/C(=N/O)[C@H]4OC/C(=C\C=C\[C@@H]2C)[C@]43O)O[C@@H](C)[C@@H]1O` [Selamectin], 67.9%; with `O=C1c2c(O)ccc(O)c2C(=O)c2c(NCCNCCO)ccc(NCCNCCO)c21` [Mitoxantrone 2HCl], 90.8%.
Take `O=C(NC(Cc1cc(=O)[nH]c2ccccc12)C(=O)O)c1ccc(Cl)cc1` (stereo not given) [Rebamipide]: the cell viability was 90.6%.
Consider `COC(=O)/C=C/C(=O)OC` [Dimethyl Fumarate], for which the cell viability was 93%.
With `C[N+](C)(C)CCOC(N)=O` [Carbachol] the figure was 96.2%; with `CN(C)CCc1c[nH]c2ccc(CS(=O)(=O)N3CCCC3)cc12` [Almotriptan Malate], 92%.
In the case of `CC(C)C[C@H](NC(=O)[C@@H](Cc1cccc2ccccc12)NC(=O)[C@H](Cc1ccc(O)cc1)NC(=O)[C@H](CO)NC(=O)[C@H](Cc1c[nH]c2ccccc12)NC(=O)[C@H](Cc1cnc[nH]1)NC(=O)[C@@H]1CCC(=O)N1)C(=O)N[C@@H](CCCNC(=N)N)C(=O)N1CCC[C@H]1C(=O)NCC(N)=O` [Nafarelin Acetate], the cell viability was 101%.
With `O=C(O)CCC(=O)c1ccc(-c2ccccc2)cc1` [Fenbufen] the figure was 93.6%; with `CCCCc1ncc(/C=C(\Cc2cccs2)C(=O)O)n1Cc1ccc(C(=O)O)cc1` [Eprosartan Mesylate], 93.3%; with `CN1CCN2c3ccccc3Cc3ccccc3C2C1` (stereo not given) [Mianserin HCl], 97.1%.
In the case of `CCCCCCCCOc1ccccc1C(=O)Nc1ccc(C(=O)OCC[N+](C)(CC)CC)cc1` [Otilonium Bromide] it was 98.5%; in that of `CCNC1(C(N)=O)CCN(c2ncnc3c2nc(-c2ccccc2Cl)n3-c2ccc(Cl)cc2)CC1`, 89.1%.
With `CCOC(=O)CC(=O)N1CCSC1COc1ccccc1OC` (stereo not given) [Moguisteine] the figure was 85.3%; with `CC(=O)Oc1ccc(C(c2ccc(OC(C)=O)cc2)c2ccccn2)cc1` [Bisacodyl], 87.7%; with `O=[N+]([O-])c1ccc(O)c2ncccc12` [Nitroxoline], 83.3%.
For `N#CC[C@H](C1CCCC1)n1cc(-c2ncnc3[nH]ccc23)cn1`, the cell viability stood at 95.2%.
With `N#CC[C@H](C1CCCC1)n1cc(-c2ncnc3[nH]ccc23)cn1` [Ruxolitinib Phosphate] the figure was 86.9%; with `NNC(=O)c1ccncc1.Nc1ccc(C(=O)O)c(O)c1` [Pasiniazid], 87.6%; with `CCCc1nn(C)c2c(=O)[nH]c(-c3cc(S(=O)(=O)N4CCN(C)CC4)ccc3OCC)nc12` [Sildenafil], 73.1%.
As for `CCCc1nn(C)c2c(=O)[nH]c(-c3cc(S(=O)(=O)N4CCN(C)CC4)ccc3OCC)nc12` [Sildenafil Citrate], the cell viability was found to be 91.1%.
With `CCCc1nn(C)c2c(=O)[nH]c(-c3cc(S(=O)(=O)N4CCN(C)CC4)ccc3OCC)nc12` [Sildenafil Mesylate] the figure was 95.5%.
With `CCC1(C)CC(=O)NC1=O` (stereo not given) [Ethosuximide] the figure was 83.5%; with `C[C@H](Nc1ncnc2nc[nH]c12)c1cc2cccc(Cl)c2c(=O)n1-c1ccccc1` [Duvelisib (IPI-145, INK1197)], 62.7%; with `CC(NCCc1ccc(O)cc1)C(O)c1ccc(O)cc1` (stereo not given) [Ritodrine HCl], 89.9%.
In the case of `C[N+](C)(CCOc1ccccc1)Cc1ccccc1.O=C([O-])c1cc2ccccc2cc1O` [Bephenium Hydroxynaphthoate] it was 86.4%.
`CCc1nn(CCCN2CCN(c3cccc(Cl)c3)CC2)c(=O)n1CCOc1ccccc1` [Nefazodone hydrochloride]: the cell viability came to 106%.
As for `O=C(c1ccc(F)c(F)c1Nc1ccc(I)cc1F)N1CC(O)([C@@H]2CCCCN2)C1` [Cobimetinib (GDC-0973, RG7420)], the cell viability was found to be 64.9%.
With `Cc1cn(-c2cc(NC(=O)c3ccc(C)c(Nc4nccc(-c5cnccn5)n4)c3)cc(C(F)(F)F)c2)cn1` [Radotinib] the figure was 101%; with `CC(C)[C@H](O)C(=O)N[C@@H](C)C(=O)N[C@@H]1C(=O)N(C)CCc2ccccc21`, 69.8%; with `Nc1nc(/C(=C/CC(=O)O)C(=O)N[C@@H]2C(=O)N3C(C(=O)O)=CCS[C@H]23)cs1` [Ceftibuten dihydrate], 85.9%.
In the case of `Nc1ccc(/N=N/c2ccccc2)c(N)n1` [Phenazopyridine HCl] it was 75.1%; in that of `CN1CCC(=C2c3ccccc3CCn3c(C=O)cnc32)CC1` [Alcaftadine], 83.8%; in that of `CCC(=O)O[C@]1(C(=O)SCF)[C@H](C)C[C@H]2[C@@H]3C[C@H](F)C4=CC(=O)C=C[C@]4(C)[C@@]3(F)[C@@H](O)C[C@@]21C` [Fluticasone propionate], 77%.
As for `O=C(O)c1ccccc1Nc1cccc(C(F)(F)F)c1` [Flufenamic acid], the cell viability came out at 75.5%.
With `Cc1cccc(C)c1OCC(=O)N[C@@H](Cc1ccccc1)[C@@H](O)C[C@H](Cc1ccccc1)NC(=O)[C@H](C(C)C)N1CCCNC1=O` [Lopinavir] the figure was 97.3%.

Values taken from the supplement of paper PMC9744312.
